Results are given in words; binding and its absence hold for the method and conditions named. Binding seen in cells or lysates may run through a third protein. Some entries that bind do so weakly or less than the wild type.
Target: T1, USP43 protein (over-expressed) (UniProt Q70EL4)
T1 sequence: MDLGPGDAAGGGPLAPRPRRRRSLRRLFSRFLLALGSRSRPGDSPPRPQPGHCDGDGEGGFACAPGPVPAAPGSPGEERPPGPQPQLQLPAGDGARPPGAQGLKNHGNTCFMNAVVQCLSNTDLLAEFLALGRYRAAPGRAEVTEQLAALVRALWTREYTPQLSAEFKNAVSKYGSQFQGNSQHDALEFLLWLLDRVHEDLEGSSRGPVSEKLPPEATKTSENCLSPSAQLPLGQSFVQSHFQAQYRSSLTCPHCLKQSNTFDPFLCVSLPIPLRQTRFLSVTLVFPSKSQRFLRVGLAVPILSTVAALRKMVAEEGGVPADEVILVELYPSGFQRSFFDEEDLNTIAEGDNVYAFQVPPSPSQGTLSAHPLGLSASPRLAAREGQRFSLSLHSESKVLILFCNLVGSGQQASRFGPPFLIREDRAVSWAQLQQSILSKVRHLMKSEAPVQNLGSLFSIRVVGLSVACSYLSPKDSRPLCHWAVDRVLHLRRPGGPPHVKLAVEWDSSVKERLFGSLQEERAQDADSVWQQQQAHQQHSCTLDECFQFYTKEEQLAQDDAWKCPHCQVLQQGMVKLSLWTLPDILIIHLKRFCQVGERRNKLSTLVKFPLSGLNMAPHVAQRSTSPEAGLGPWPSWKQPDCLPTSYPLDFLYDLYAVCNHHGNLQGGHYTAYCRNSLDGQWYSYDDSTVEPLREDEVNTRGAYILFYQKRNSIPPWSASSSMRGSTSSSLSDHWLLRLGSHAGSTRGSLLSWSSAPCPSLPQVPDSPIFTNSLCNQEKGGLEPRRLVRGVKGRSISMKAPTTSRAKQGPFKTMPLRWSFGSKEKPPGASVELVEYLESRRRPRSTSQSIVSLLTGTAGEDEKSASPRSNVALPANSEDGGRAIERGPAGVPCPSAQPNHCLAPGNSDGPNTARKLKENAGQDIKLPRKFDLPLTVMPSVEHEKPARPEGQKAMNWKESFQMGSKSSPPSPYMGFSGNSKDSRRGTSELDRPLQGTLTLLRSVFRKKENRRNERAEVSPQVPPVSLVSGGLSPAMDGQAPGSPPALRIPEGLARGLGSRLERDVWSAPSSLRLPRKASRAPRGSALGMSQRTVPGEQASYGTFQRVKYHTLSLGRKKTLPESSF
Test: co-IP; forward and reverse co-IP in USP43 overexpression DLD1 cells (text; the legend names 293T cells); lysate (RIPA buffer) incubated 1 h at room temperature with antibody-conjugated magnetic beads

B1: ZEB1 protein (in USP43 overexpression DLD1 cells) (protein, UniProt P37275 1-1124)
chain: MADGPRCKRRKQANPRRNNVTNYNTVVETNSDSDDEDKLHIVEEESVTDAADCEGVPEDDLPTDQTVLPGRSSEREGNAKNCWEDDRKEGQEILGPEAQADEAGCTVKDDECESDAENEQNHDPNVEEFLQQQDTAVIFPEAPEEDQRQGTPEASGHDENGTPDAFSQLLTCPYCDRGYKRFTSLKEHIKYRHEKNEDNFSCSLCSYTFAYRTQLERHMTSHKSGRDQRHVTQSGCNRKFKCTECGKAFKYKHHLKEHLRIHSGEKPYECPNCKKRFSHSGSYSSHISSKKCISLIPVNGRPRTGLKTSQCSSPSLSASPGSPTRPQIRQKIENKPLQEQLSVNQIKTEPVDYEFKPIVVASGINCSTPLQNGVFTGGGPLQATSSPQGMVQAVVLPTVGLVSPISINLSDIQNVLKVAVDGNVIRQVLENNQANLASKEQETINASPIQQGGHSVISAISLPLVDQDGTTKIIINYSLEQPSQLQVVPQNLKKENPVATNSCKSEKLPEDLTVKSEKDKSFEGGVNDSTCLLCDDCPGDINALPELKHYDLKQPTQPPPLPAAEAEKPESSVSSATGDGNLSPSQPPLKNLLSLLKAYYALNAQPSAEELSKIADSVNLPLDVVKKWFEKMQAGQISVQSSEPSSPEPGKVNIPAKNNDQPQSANANEPQDSTVNLQSPLKMTNSPVLPVGSTTNGSRSSTPSPSPLNLSSSRNTQGYLYTAEGAQEEPQVEPLDLSLPKQQGELLERSTITSVYQNSVYSVQEEPLNLSCAKKEPQKDSCVTDSEPVVNVIPPSANPINIAIPTVTAQLPTIVAIADQNSVPCLRALAANKQTILIPQVAYTYSTTVSPAVQEPPLKVIQPNGNQDERQDTSSEGVSNVEDQNDSDSTPPKKKMRKTENGMYACDLCDKIFQKSSSLLRHKYEHTGKRPHECGICKKAFKHKHHLIEHMRLHSGEKPYQCDKCGKRFSHSGSYSQHMNHRYSYCKREAEERDSTEQEEAGPEILSNEHVGARASPSQGDSDERESLTREEDEDSEKEEEEEDKEMEELQEEKECEKPQGDEEEEEEEEEVEEEEVEEAENEGEEAKTEGLMKDDRAESQASSLGQKVGESSEQVSEEKTNEA
Question: Which binding does the source give for B1 here?
Answer: The binding was “binds”.

Reference: publication PMC7738986
